For the assay, the target named is human sclerostin (human) (UniProt Q9BQB4). In words: competition alpha screen binding assay (antibody titrated against sclerostin-LRP6).

Amino acid sequences for entries named in this document (tags omitted). A change or cut given only in a name is not applied to a line headed by its entry.
UniProt Q9BQB4: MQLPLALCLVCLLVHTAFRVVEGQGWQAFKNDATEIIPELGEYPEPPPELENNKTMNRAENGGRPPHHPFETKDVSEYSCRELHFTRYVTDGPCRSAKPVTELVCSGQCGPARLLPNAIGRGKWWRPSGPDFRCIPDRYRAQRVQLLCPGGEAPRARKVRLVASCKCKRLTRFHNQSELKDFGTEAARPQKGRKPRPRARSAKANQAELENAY

Results are given in words; binding and its absence hold for the method and conditions named. Some binding calls cover weakened binding; strength is not graded here.

B1: 20C3 (antibody, V domains shown)
VH: QVQLQESGPGLVKPSETLSLTCTVSGGSISSYYWSWIRQPPGKGLEWIGYISDSGSTNYNPSLKSRIPISVDTSKNQFSLKLSSVTAADTAVYYCARWQLAHDAFDIWGQGTMVTVSS
VL: QSALTQPASVSGSPGQSITISCTGTSSDVGGYNYVSWYQQHPGKAPKLMIYEVSYRPSGVSNRFSGSKSGSTASLTISGLQPEDEADYYCSSYAISSTLVFGGGTKMTVL
As for B1, the binding entry was “binds”.
